The experiment can be described thus: qHTS Assay to Find Inhibitors of Chronic Active B-Cell Receptor Signaling. The note with it: ABC-DLBCL IkBa-CBG/CBR reporter, luminescence ratio (green luciferase fused to IkBa over red control in TMD8 lymphoma cells), 4 h. A digest of the protocol: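 TMD8 ABC-DLBCL cells carrying doxycycline-inducible green luciferase fused to IkappaBalpha plus unfused red luciferase were exposed to compounds (up to 46 uM) for 4 hrs at 37C. Activity came from the overlap-corrected green/red luminescence ratio.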
In general terms: Quantitative high-throughput screening tests each substance at several concentrations.

[1] abbreviates: measured here: CBR red luminescence, cell number.

This is one part of the list. Shown are side measurements of this screen, not its main read-out; they come without a call. Most of these compounds were active or inconclusive in the main read-out, so they are no random draw. The note in brackets gives the kind of curve behind each potency; many fits are weak.

`Cc1nc2sc(C(c3cccc(F)c3)N3CCN(C(=O)c4ccco4)CC3)c(O)n2n1` (configuration not stated): under setting [1], the half-maximal activity concentration (AC50) – broadly, the concentration at which the activity in the assay is half-maximal – is 3.66 µM [rising, full curve, poor fit].
The same measure, in the same setting: to `O=S(=O)(CCSc1nc2ccccc2o1)Cc1ccccc1` belongs 6.51 µM [rising, single point].
Consider `O=C(N/N=C1\CCCc2ccccc21)c1cccc(Br)c1`, for which, under setting [1], the AC50 is 22.4 µM [falling, single point].
The same measure, in the same setting: under `O=C(Nc1nnc(-c2ccccc2)o1)c1cccc(N2C(=O)CCC2=O)c1` stands 20.6 µM [falling, single point]; under `O=C(O)Cc1csc(-c2ccccc2)n1`, 11.2 µM [rising, partial curve, poor fit].
On to `Clc1cccc(-n2cc(-c3ccccc3)c3c(NC4CCCC4)ncnc32)c1`, for which the AC50 under setting [1] was 10 µM [rising, partial curve].
For the molecule `CNC(=O)/C(=C\C=C\c1ccccc1)NC(=O)c1ccc([N+](=O)[O-])cc1`, the concentration at half-maximal activity (AC50) under setting [1] was 29.1 µM [rising, single point].
In the case of `c1ccc(N2CCN(c3ncccn3)CC2)cc1`, under setting [1], the concentration at half-maximal activity (AC50) is 5.01 µM [rising, partial curve, poor fit].
On to `CC1CCN(C(=O)CCCOc2cc(=O)n(C)c3ccccc23)CC1`, for which the AC50 runs as follows: under setting [1], 3.66 µM [rising, full curve]; (measured here: IkBa-CBG green luminescence) 11.6 µM [falling, partial curve].
Turning to `Cc1ccc(SCCNC(=O)/C=C/c2ccc(Cl)cc2)cc1`, the AC50 under setting [1] was 29.1 µM [rising, single point].
On to `Cc1oc(-c2ccccc2F)nc1CS(=O)CC(=O)NCc1ccc2c(c1)OCO2` (configuration not stated), for which, under setting [1], the half-maximal activity concentration (AC50) is 4.61 µM [rising, partial curve, poor fit].
On the same count and under the same terms, under `COC(=O)c1cc(NC(=O)c2ccco2)ccc1N1CCOCC1` stands 7.94 µM [falling, partial curve, poor fit]; under `COC(=O)c1ccc(Sc2ccc(F)cc2)c(N)c1`, 29.1 µM [rising, single point]; under `COC(=O)c1ccccc1NC(=O)Nc1ccc(Cl)cn1`, 15.8 µM [falling, partial curve, poor fit].
Turning to `COc1ccccc1Oc1ccc2c(c1)C(=O)N(c1cccc(O)c1)C2=O`, the AC50 under setting [1] is 35.5 µM [falling, single point].
As for `Cc1cc(C)nc(Sc2ncnc3c2oc2ccccc23)n1`, the AC50 under setting [1] was 35.5 µM [falling, single point].
In the case of `NS(=O)(=O)c1ccccc1`, the AC50 under setting [1] is 3.16 µM [falling, full curve].
Still for that read-out and setting: to `COc1ccccc1CNC(=O)c1ccccc1SCC(=O)NCc1ccco1` belongs 8.2 µM [falling, partial curve]; to `Cc1cccc(NC(=S)Nc2ccc(Oc3ccccc3)cc2)n1`, 0.82 µM [rising, full curve].
Same read-out and setting: to `CCN(Cc1ccccc1)c1ccc(/C=N/N=C(N)N)cc1` belongs 29.1 µM [falling, single point]; to `O=C(N/N=C\c1cccnc1)c1cc(-c2ccc(Cl)s2)[nH]n1`, 5.62 µM [falling, partial curve, poor fit].
`S=c1[nH]nc(-c2ccccc2)n1/N=C/c1cccs1`: the AC50 under setting [1] is 16.4 µM [rising, single point].
For `CCCCNc1cc(C)nc(NCc2ccccc2)n1`, the AC50 under setting [1] is 35.5 µM [falling, single point].
For the molecule `O=C(O)c1ccc(-c2ccc(O)c(F)c2)cc1`, the AC50 under setting [1] is 0.0731 µM [rising, partial curve, poor fit].
Turning to `CCc1nnc(NC(=O)CSc2nnc(-c3ccco3)o2)s1`, the half-maximal activity concentration (AC50) under setting [1] was 10 µM [falling, partial curve].
Consider `COC(=O)c1nn(-c2ccccc2)c(Sc2ccc(Br)cc2)c1/C=N/O`, for which, under setting [1], the AC50 is 12.6 µM [falling, partial curve].
Regarding `Cc1cccc2sc(N(CCN(C)C)C(=O)/C=C/c3cccs3)nc12`, the AC50 under setting [1] is 29.1 µM [falling, single point].
As to `O=C(CN1C(=O)S/C(=C\C=C\c2ccccc2)C1=O)N1CCCCC1`, under setting [1], the AC50 was 20 µM [rising, partial curve, poor fit].
On to `CCN(CC(=O)NCc1ccc(Cl)cc1)S(=O)(=O)c1ccc(NC(C)=O)cc1`, for which, under setting [1], the concentration at half-maximal activity (AC50) is 35.5 µM [rising, partial curve, poor fit].
In the case of `O=C1CCCc2nc(N3CCc4ccccc43)ncc21`, under setting [1], the AC50 is 10 µM [rising, partial curve].
Still for that read-out and setting: to `COc1ccccc1-n1c(=O)c(C#N)c(-c2ccc([N+](=O)[O-])cc2)c2cc(C(=O)c3ccccc3O)cnc21` belongs 1 µM [falling, full curve, poor fit]; to `O=C(Nc1ccc2c(c1)OCO2)c1cnn2c1NC(c1ccco1)CC2C(F)(F)F` (configuration not stated), 6.31 µM [rising, full curve]; to `CC(C(=O)Nc1ccc2c(c1)OCCO2)N(C)CC(=O)Nc1ccccc1Br` (configuration not stated), 18.4 µM [rising, partial curve, poor fit].
On the same count and under the same terms, under `CCc1nn2cc(C(=O)c3ccccc3O)cnc2c1-c1ccc(F)cc1` stands 13 µM [falling, partial curve]; under `COc1cccc(CNC(=O)Cn2c(=O)oc3cc(S(=O)(=O)N4CCCCCC4)ccc32)c1`, 3.55 µM [rising, partial curve, poor fit].
For the molecule `COC(=O)c1ccccc1NC(=O)c1cc2ccccc2o1`, the AC50 under setting [1] was 0.224 µM [falling, full curve, poor fit].
As to `N#CC1=C(N)C(C#N)(C#N)[C@H](c2ccncc2)[C@H]2CC3(CC=C12)OCCO3`, the AC50 under setting [1] was 12.6 µM [rising, partial curve, poor fit].
As for `COc1ccc(Br)cc1CN1CCN(Cc2c[nH]c3ccccc23)CC1`, the AC50 under setting [1] was 35.5 µM [falling, single point].
With `Cc1ccc(Cl)cc1NC(=O)C1CCCN1S(=O)(=O)c1ccc(-c2ccc(=O)[nH]n2)s1` (configuration not stated), under setting [1], the concentration at half-maximal activity (AC50) is 2.82 µM [rising, full curve, poor fit].
The same measure, in the same setting: under `O=C(COC(=O)c1ccccc1SCC(=O)N1CCCC1)Nc1ccccc1OC(F)F` stands 20.6 µM [falling, partial curve, poor fit].
On the same count and under the same terms, to `CC(=O)N(/N=C/c1ccc([N+](=O)[O-])o1)c1nc2ccccc2c(=O)n1-c1ccccc1` belongs 7.94 µM [rising, partial curve].

These data come from PubChem BioAssay AID493014 (National Center for Advancing Translational Sciences (NCATS), 2011).
